Reference: US20170010256A1, “METHOD FOR SCREENING THERAPEUTIC AND/OR PROPHYLACTIC AGENTS FOR ALZHEIMER'S DISEASE” (KYOTO UNIVERSITY, priority 2012, published 2017)
At least one structure is not confirmed: it was looked up by name or label, or the drawing left a doubt.

Assays:
Assay type in all cases: cell-based, human
[1] = tested on: nerve cells derived from AD(E693Δ)-iPSCs; test: Nerve cell survival (Synapsin::EGFP-positive cell count, LDH method); conditions: DHA
[2] = tested on: nerve cells derived from one case of sporadic AD-iPSCs; test: Western blotting of BiP and peroxiredoxin-4; conditions: DHA
[3] = tested on: nerve cells and astrocytes derived from AD(E693Δ)-iPSCs and sporadic AD-iPSCs; test: Reactive oxygen species (ROS) level by fluorescent staining (HPF, CellROX); conditions: DHA at 5 μM
Procedure: Subsequently, the levels of reactive oxygen species (ROS) in nerve cells and astrocytes derived from AD(E693Δ)-iPSCs, AD(V717L)-iPSCs and sporadic AD-iPSCs were measured by fluorescent staining (HPF method (Sekisui Medical) and CellROX method (Invitrogen)). As a result, increases in the level of reactive oxygen species were found in nerve cells and astrocytes derived from AD(E693Δ)-iPSCs and one case of sporadic AD-iPSCs (FIGS. 7E and 7F; FIGS. 10A, 10B and 10C; and FIG. 11).

[4] = tested on: nerve cells and astrocytes derived from AD-iPSCs; test: Dot blot analysis of accumulated Aβ oligomers (NU-1 antibody)
From the text: In order to investigate whether nerve cells and astrocytes derived from AD-iPSCs have Aβ oligomers therein, an Aβ oligomer-specific antibody NU-1 (Gong Y et al., Proc Natl Acad Sci USA. 100:10417-22.2003) or 11A1 was used to perform immunocytochemical analysis of iPSC-derived nerve cells and astrocytes. […] These spot structures could be seen also in astrocytes derived from AD-iPSCs, but could be hardly seen in the fibroblasts from which the cells were derived. Quantitative analysis of Aβ oligomers in MAP2-positive cells was performed by specifically staining the oligomers. […] Further, use of 11A1, which is another antibody against Aβ, also gave a similar result. […] It was shown that the increase in Aβ oligomers in nerve cells derived from AD-iPSCs can be suppressed by treatment with BSI to achieve a level equivalent to that of the control.
Dot blot analysis was similarly carried out for nerve cells and astrocytes derived from the control iPSCs, AD(E693Δ)-iPSCs, AD(V717L)-iPSCs and sporadic AD-iPSCs. As a result, significant increases in Aβ oligomers could be observed for the nerve cells and astrocytes derived from all cases of AD(E693Δ)-iPSCs and one case of sporadic AD-iPSCs (FIGS. 5A, 5B and 5C). Further, it was shown that these increases can be suppressed by treatment with BSI to achieve levels equivalent to the level in the control.

[5] = tested on: nerve cells derived from AD(E693Δ)-iPSCs; test: Western blotting of ER stress and oxidative stress markers (BiP, activated caspase 4, PRDX4)
From the text: It is known that APP processing by β- and γ-secretase activities proceeds in the vesicle/endosome fraction. In view of this, whether Aβ oligomer-positive spot structures are present in the organelle and vesicle fractions in nerve cells derived from AD(E693Δ)-iPSCs was investigated. As a result, Aβ oligomer-positive spot structures were co-stained with an endoplasmic reticulum (ER) marker BiP, an early-endosome marker EEA1, and a lysosome marker LAMP2 (FIG. 6A). Investigation of the protein expression levels of BiP and activated caspase 4, which are ER stress markers, was carried out.
In order to find molecules differently expressed in nerve cells of the APP-E693Δ type, comprehensive analysis using a DNA microarray was carried out. As a result, increased expression of transgelin was found in AD(E693Δ)-iPSCs (FIG. 7A). […] Since this increase was suppressed by addition of BSI, it was thought that the oxidative stress was caused by formation of Aβ oligomers.
Docosahexaenoic acid (DHA) (Nacalai) was added to the medium at concentrations of 1 μM, 5 μM and 15 μM, and the expression levels of BiP protein, activated caspase 4 and PRDX4 in nerve cells derived from AD(E693Δ)-iPSCs were investigated. […] Further, when iPSC-derived nerve cells were cultured after addition of DHA at 5 μM, reduced expression of ROS was found in nerve cells derived from AD(E693Δ)-iPSCs (FIGS. 12E and 12F).

[6] = DHA 1 μM, 5 μM and 15 μM, nerve cells derived from AD(E693Δ)-iPSCs, vs DHA-free group (DMSO)

## CC/C=C\C/C=C\C/C=C\C/C=C\C/C=C\C/C=C\CCC(=O)O [DHA, Docosahexaenoic acid]
[1]
  cell death caused by hydrogen peroxide: Effectiveness
[1]; nerve cells derived from AD(E693Δ)-iPSCs, medium free of B27, BDNF, GDNF and NT-3
  cell death caused by the absence of neurotrophic factors: suppressed
[2]
  expression level of BiP: significant suppression
  expression level of peroxiredoxin-4: significant suppression
[3]
  expression of ROS: reduced
[4]; Table 1 summary of results
  Aβ oligomer: Unchanged
[4]; addition of DHA
  amount of Aβ oligomers accumulated in nerve cells (dot blot, NU1, FIG. 13C): did not change
[5]; [6]
  expression level of BiP protein: decreased
  expression level of PRDX4: decreased
  expression level of activated caspase 4: decreased
[5]; Table 1 summary of results
  ER stress markers (BiP, Peroxiredoxin-4, etc.): Decreased
[5]; addition of DHA
  ER stress caused by Aβ oligomer (FIG. 12): reduction
